Source: the supplement of paper PMC6078165
The reference is the same well before dosing, and untreated signal decays as well.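 The tumor cells are basal-like or mesenchymal-like triple-negative breast cancer lines cultured without fibroblasts. Reduced red signal indicates lost mitochondrial integrity, serving as a proxy for apoptotic death.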

How the values were obtained:
Assay in all cases: relative JC-1 red fluorescence (viability) vs pre-drug, monoculture (fraction); higher = more viable cancer cells
Settings in all cases: coculture fibroblast: none (monoculture)
[1] = test system: BT20
Description: (§1)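 JC-1 labelled TNBC cells grown in monoculture (density kept equal with unlabelled cancer cells) in 384-well plates in FluoroBrite medium, treated with one of 42 anticancer drugs at 0.1, 1, 10 or 100 uM. JC-1 red fluorescence (mitochondrial integrity, surrogate of apoptotic death) was read by plate reader every 8 h for 72 h. Values are normalised to each well's pre-drug value, with background from alamethicin. The stock of one drug was tenfold lower, so its dose labels may be too high. Monoculture values are repeated alongside each fibroblast plate and are averaged here.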

[2] = test system: Hs578T
Description: as §1

[3] = test system: MDAMB231
Description: as §1

[4] = test system: MDAMB468
Description: as §1

CC[C@]1(O)C[C@@H]2CN(CCc3c([nH]c4ccccc34)[C@@](C(=O)OC)(c3cc4c(cc3OC)N(C)[C@H]3[C@@](O)(C(=O)OC)[C@H](OC(C)=O)[C@]5(CC)C=CCN6CC[C@]43[C@@H]65)C2)C1 [Vinblastine]
relative JC-1 red fluorescence
Settings | 8 h | 16 h | 24 h | 32 h | 40 h | 48 h | 56 h | 64 h | 72 h
[1], 0.1 µM | 0.957 | 0.875 | 0.841 | 0.777 | 0.748 | 0.717 | 0.691 | 0.673 | 0.658
[1], 1 µM | 0.9345 | 0.8752 | 0.8086 | 0.7303 | 0.688 | 0.666 | 0.628 | 0.604 | 0.581
[1], 10 µM | 0.913 | 0.8598 | 0.824 | 0.767 | 0.715 | 0.689 | 0.6541 | 0.637 | 0.613
[1], 100 µM | 0.719 | 0.449 | 0.234 | 0.15 | 0.111 | 0.0883 | 0.0673 | 0.0524 | 0.0385
[2], 0.1 µM | 0.8443 | 0.6691 | 0.657 | 0.57 | 0.534 | 0.503 | 0.478 | 0.469 | 0.467
[2], 1 µM | 0.876 | 0.758 | 0.687 | 0.596 | 0.565 | 0.549 | 0.527 | 0.532 | 0.526
[2], 10 µM | 0.756 | 0.648 | 0.607 | 0.534 | 0.494 | 0.48 | 0.455 | 0.441 | 0.43
[2], 100 µM | 0.52 | 0.206 | 0.14 | 0.0773 | 0.0537 | 0.0403 | 0.0327 | 0.0308 | 0.025
[3], 0.1 µM | 0.781 | 0.6841 | 0.6955 | 0.633 | 0.604 | 0.594 | 0.578 | 0.6127 | 0.6228
[3], 1 µM | 0.733 | 0.6851 | 0.634 | 0.58 | 0.548 | 0.533 | 0.514 | 0.537 | 0.536
[3], 10 µM | 0.688 | 0.708 | 0.655 | 0.675 | 0.628 | 0.6 | 0.567 | 0.562 | 0.533
[3], 100 µM | 0.635 | 0.552 | 0.316 | 0.205 | 0.143 | 0.108 | 0.0971 | 0.108 | 0.1
[4], 0.1 µM | 0.9179 | 0.836 | 0.789 | 0.703 | 0.647 | 0.615 | 0.565 | 0.539 | 0.522
[4], 1 µM | 0.9026 | 0.856 | 0.826 | 0.7793 | 0.7486 | 0.7328 | 0.706 | 0.692 | 0.679
[4], 10 µM | 0.8829 | 0.819 | 0.8007 | 0.731 | 0.697 | 0.661 | 0.613 | 0.585 | 0.552
[4], 100 µM | 0.657 | 0.277 | 0.0962 | 0.0439 | 0.0221 | 0.0366 | 0.0149 | 0.0263 | 0.0228

CC(C)C[C@H](NC(=O)[C@H](Cc1ccccc1)NC(=O)c1cnccn1)B(O)O [Bortezomib]
relative JC-1 red fluorescence
Settings | 8 h | 16 h | 24 h | 32 h | 40 h | 48 h | 56 h | 64 h | 72 h
[1], 0.1 µM | 0.935 | 0.879 | 0.899 | 0.827 | 0.808 | 0.816 | 0.815 | 0.811 | 0.831
[1], 1 µM | 0.909 | 0.82 | 0.664 | 0.533 | 0.429 | 0.386 | 0.336 | 0.321 | 0.312
[1], 10 µM | 0.942 | 0.758 | 0.675 | 0.486 | 0.413 | 0.399 | 0.376 | 0.37 | 0.378
[1], 100 µM | 0.934 | 0.882 | 0.769 | 0.6083 | 0.536 | 0.487 | 0.442 | 0.423 | 0.413
[2], 0.1 µM | 0.7706 | 0.628 | 0.585 | 0.4551 | 0.4361 | 0.447 | 0.45 | 0.475 | 0.485
[2], 1 µM | 0.759 | 0.636 | 0.546 | 0.478 | 0.437 | 0.421 | 0.418 | 0.423 | 0.418
[2], 10 µM | 0.892 | 0.648 | 0.668 | 0.559 | 0.541 | 0.539 | 0.523 | 0.54 | 0.54
[2], 100 µM | 0.814 | 0.601 | 0.539 | 0.469 | 0.4354 | 0.4231 | 0.4173 | 0.4254 | 0.4195
[3], 0.1 µM | 0.81 | 0.78 | 0.901 | 0.784 | 0.8216 | 0.845 | 0.8595 | 0.85 | 0.9375
[3], 1 µM | 0.83 | 0.7266 | 0.817 | 0.663 | 0.781 | 0.762 | 0.719 | 0.741 | 0.741
[3], 10 µM | 0.909 | 0.775 | 0.9229 | 0.788 | 0.733 | 0.865 | 0.816 | 0.812 | 0.8237
[3], 100 µM | 0.799 | 0.747 | 0.624 | 0.586 | 0.535 | 0.528 | 0.49 | 0.505 | 0.498
[4], 0.1 µM | 0.782 | 0.726 | 0.759 | 0.758 | 0.748 | 0.7907 | 0.7664 | 0.77463 | 0.795
[4], 1 µM | 0.856 | 0.757 | 0.675 | 0.569 | 0.526 | 0.51 | 0.483 | 0.476 | 0.465
[4], 10 µM | 0.815 | 0.553 | 0.44837 | 0.368 | 0.316 | 0.319 | 0.298 | 0.295 | 0.294
[4], 100 µM | 0.886 | 0.815 | 0.696 | 0.5857 | 0.5397 | 0.521 | 0.497 | 0.487 | 0.478
